The values that follow come from PMC9586991.

For this test, the target named is T1, FLAG-Rab44 expressed in B16-F1 melanoma cells (mouse) (UniProt Q8CB87).
T1 sequence: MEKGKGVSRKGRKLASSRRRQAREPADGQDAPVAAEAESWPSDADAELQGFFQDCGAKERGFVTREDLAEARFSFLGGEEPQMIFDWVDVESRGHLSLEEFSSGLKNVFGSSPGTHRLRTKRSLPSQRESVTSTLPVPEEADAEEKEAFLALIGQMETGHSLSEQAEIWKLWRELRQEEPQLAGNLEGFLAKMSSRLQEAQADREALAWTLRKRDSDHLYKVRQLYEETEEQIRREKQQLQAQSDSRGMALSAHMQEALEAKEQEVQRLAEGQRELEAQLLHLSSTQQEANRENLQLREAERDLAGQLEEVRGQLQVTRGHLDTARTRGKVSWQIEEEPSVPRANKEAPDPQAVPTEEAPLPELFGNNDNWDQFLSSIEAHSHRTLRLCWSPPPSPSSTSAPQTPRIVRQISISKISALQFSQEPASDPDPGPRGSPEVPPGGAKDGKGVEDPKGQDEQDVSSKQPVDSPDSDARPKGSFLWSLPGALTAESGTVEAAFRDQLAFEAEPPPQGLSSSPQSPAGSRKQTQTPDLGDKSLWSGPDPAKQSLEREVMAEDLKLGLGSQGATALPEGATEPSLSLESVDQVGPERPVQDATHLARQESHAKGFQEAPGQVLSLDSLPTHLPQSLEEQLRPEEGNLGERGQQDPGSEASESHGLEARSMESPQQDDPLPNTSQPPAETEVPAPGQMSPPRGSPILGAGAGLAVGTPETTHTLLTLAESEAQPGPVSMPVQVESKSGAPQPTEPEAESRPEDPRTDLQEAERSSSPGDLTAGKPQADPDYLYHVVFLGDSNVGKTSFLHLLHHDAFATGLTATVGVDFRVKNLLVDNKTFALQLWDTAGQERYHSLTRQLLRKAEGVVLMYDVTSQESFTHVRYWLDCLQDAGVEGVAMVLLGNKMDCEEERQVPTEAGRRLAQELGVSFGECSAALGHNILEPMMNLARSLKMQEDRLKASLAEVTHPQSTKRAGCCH
In words: co-IP; B16-F1 cells transfected for 2 days with pEF-FLAG-Rab44; lysates with anti-FLAG agarose beads 16 h at 4 °C; immunoblot for the endogenous proteins.

Results are given in words; binding and its absence hold for the method and conditions named. In cells and extracts the contact can be indirect. A result given as binding can be weak or reduced; the word gives no strength. Sequences can lack the tags named with a protein.

Turning to “endogenous dynein heavy chain (mouse (endogenous in B16-F1))”, the binding result is listed as “binds”.
